# The list shows a part of the results, in another mix than the full data. For part of these data: At the low end of the ranking, values are background and their order means little. This is one part of the list. For part of these data: The exact form of the protein is not confirmed.
# The chains behind the UniProt entries cited, without tags or fusion partners. Where a name states a change or a piece, a line headed by the entry shows the natural chain unless it says otherwise.
# UniProt P32519: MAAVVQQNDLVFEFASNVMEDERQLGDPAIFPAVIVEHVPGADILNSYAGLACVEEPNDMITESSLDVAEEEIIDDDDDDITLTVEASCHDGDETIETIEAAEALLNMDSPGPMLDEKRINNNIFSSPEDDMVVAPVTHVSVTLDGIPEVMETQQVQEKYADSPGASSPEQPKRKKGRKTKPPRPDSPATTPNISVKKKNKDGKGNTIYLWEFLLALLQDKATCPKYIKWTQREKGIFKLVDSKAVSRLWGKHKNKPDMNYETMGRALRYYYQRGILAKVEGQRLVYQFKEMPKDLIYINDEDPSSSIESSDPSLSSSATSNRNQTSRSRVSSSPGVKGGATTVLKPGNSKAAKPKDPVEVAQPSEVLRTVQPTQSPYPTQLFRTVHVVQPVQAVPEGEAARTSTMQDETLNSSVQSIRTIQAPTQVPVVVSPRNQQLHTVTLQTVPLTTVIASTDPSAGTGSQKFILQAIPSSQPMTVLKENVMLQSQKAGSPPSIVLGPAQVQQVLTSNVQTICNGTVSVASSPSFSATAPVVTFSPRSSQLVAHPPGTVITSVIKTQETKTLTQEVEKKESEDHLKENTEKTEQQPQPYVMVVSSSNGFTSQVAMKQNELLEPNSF
# UniProt P50549: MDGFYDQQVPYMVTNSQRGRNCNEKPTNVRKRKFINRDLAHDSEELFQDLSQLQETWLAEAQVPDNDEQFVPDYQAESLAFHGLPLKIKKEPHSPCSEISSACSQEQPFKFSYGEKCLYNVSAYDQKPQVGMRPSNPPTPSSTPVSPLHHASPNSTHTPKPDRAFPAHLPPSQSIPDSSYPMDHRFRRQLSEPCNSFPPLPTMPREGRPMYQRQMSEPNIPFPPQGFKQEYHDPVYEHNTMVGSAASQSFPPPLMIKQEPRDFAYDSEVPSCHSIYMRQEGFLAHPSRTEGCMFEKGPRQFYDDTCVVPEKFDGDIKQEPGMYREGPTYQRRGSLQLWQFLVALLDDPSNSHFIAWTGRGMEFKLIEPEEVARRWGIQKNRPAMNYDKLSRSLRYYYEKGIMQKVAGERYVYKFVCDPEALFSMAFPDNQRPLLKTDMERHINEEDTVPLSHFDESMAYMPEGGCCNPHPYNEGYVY
# Legend:
# Assay in all cases: DAPPL (digital affinity profiling via proximity ligation, sequencing)
# Conditions in all cases: 10 mM Tris-HCl pH 7.5, 50 mM NaCl, 1 mM DTT, 4% glycerol, room temperature, 30 min; GST-TFs on glutathione beads, 16-mer random dsDNA library, 0.1% …; high values mean tight binding; double strand, one strand shown; scale: fold enrichment (6-mer frequency, TF over GST control)
# ERG = target: T1, ERG (UniProt P11308)
# T1 sequence: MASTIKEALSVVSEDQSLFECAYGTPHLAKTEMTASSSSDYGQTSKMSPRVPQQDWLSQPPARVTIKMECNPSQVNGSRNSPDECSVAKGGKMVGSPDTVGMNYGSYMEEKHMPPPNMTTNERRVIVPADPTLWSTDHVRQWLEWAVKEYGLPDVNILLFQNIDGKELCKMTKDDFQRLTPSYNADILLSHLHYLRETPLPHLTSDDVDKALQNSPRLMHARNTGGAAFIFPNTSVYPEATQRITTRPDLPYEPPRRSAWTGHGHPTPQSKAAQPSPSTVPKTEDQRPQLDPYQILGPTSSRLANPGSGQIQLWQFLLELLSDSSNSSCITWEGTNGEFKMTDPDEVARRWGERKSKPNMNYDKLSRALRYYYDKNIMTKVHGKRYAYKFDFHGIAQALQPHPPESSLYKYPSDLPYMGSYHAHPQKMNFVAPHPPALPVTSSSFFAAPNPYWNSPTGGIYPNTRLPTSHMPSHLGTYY
# ELF1 = ELF1 (UniProt P32519)
# ELK4 = target: T2, ELK4 (UniProt P28324-2)
# T2 sequence: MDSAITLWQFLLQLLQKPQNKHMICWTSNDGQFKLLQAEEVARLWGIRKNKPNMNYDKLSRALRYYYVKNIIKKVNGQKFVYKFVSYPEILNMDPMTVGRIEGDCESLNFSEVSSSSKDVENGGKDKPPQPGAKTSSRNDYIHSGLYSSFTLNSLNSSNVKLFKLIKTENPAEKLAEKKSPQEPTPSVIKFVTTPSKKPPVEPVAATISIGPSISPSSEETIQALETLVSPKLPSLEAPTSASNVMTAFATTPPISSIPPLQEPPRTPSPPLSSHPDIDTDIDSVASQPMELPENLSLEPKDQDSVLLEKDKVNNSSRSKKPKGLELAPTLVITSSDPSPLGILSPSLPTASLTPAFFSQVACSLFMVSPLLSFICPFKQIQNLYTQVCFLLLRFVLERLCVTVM
# ETV4 = target: T3, ETV4 (UniProt P43268)
# T3 sequence: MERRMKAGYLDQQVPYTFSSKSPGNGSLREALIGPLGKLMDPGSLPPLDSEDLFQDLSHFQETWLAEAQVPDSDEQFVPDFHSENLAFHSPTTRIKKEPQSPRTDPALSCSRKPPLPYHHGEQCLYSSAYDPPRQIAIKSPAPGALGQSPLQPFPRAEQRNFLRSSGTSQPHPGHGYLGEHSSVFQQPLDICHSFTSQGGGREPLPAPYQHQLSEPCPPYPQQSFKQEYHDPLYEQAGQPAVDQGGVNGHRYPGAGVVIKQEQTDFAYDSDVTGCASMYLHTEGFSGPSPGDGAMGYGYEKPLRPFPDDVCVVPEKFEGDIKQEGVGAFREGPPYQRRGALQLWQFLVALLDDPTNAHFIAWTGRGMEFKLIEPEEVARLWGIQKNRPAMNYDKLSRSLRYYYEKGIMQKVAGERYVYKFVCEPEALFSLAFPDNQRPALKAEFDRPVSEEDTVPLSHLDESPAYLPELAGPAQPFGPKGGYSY
# ETV1 = ETV1 (UniProt P50549)
# ERF = target: T4, ERF (UniProt P50548)
# T4 sequence: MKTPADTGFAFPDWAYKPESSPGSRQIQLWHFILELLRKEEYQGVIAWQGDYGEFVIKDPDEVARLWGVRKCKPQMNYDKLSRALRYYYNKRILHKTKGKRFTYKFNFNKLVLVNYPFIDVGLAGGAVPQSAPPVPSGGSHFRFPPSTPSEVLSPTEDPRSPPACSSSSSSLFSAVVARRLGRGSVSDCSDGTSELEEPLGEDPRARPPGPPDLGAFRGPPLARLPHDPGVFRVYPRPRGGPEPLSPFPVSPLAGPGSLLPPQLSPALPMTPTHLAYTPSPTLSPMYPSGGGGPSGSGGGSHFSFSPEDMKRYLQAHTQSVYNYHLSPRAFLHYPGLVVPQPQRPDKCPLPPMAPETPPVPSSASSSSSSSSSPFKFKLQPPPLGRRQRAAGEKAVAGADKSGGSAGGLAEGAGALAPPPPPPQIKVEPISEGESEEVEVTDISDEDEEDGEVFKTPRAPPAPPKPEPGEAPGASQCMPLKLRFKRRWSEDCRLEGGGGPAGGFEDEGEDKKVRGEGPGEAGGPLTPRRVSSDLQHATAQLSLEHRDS
sequence,measurement,setting,value
TGAGGC,binding signal,ERG,0.435
same,binding signal,ELF1,0.501
same,binding signal,ELK4,0.56
same,binding signal,ETV4,0.474
same,binding signal,ETV1,0.488
same,binding signal,ERF,0.531
GGACCG,binding signal,ERG,0.912
same,binding signal,ELF1,0.851
same,binding signal,ELK4,0.854
same,binding signal,ETV4,0.891
same,binding signal,ETV1,0.84
same,binding signal,ERF,0.784
TCGCCA,binding signal,ERG,0.869
same,binding signal,ELF1,0.987
same,binding signal,ELK4,0.981
same,binding signal,ETV4,1.07
same,binding signal,ETV1,0.88
same,binding signal,ERF,0.898
GAGAGA,binding signal,ERG,0.421
same,binding signal,ELF1,0.434
same,binding signal,ELK4,0.41
same,binding signal,ETV4,0.406
same,binding signal,ETV1,0.393
same,binding signal,ERF,0.484
CCGAGA,binding signal,ERG,0.6
same,binding signal,ELF1,0.64
same,binding signal,ELK4,0.622
same,binding signal,ETV4,0.628
same,binding signal,ETV1,0.532
same,binding signal,ERF,0.607
TCAGGC,binding signal,ERG,0.746
same,binding signal,ELF1,0.757
same,binding signal,ELK4,0.722
same,binding signal,ETV4,0.766
same,binding signal,ETV1,0.651
same,binding signal,ERF,0.664
AGTGTG,binding signal,ERG,0.72
same,binding signal,ELF1,0.682
same,binding signal,ELK4,0.836
same,binding signal,ETV4,0.654
same,binding signal,ETV1,0.781
same,binding signal,ERF,0.609
GGCCAT,binding signal,ERG,0.852
same,binding signal,ELF1,0.824
same,binding signal,ELK4,0.869
same,binding signal,ETV4,0.904
same,binding signal,ETV1,0.836
same,binding signal,ERF,0.968
GCGTGA,binding signal,ERG,0.286
same,binding signal,ELF1,0.26
same,binding signal,ELK4,0.305
same,binding signal,ETV4,0.262
same,binding signal,ETV1,0.284
same,binding signal,ERF,0.275
GGGACG,binding signal,ERG,0.502
same,binding signal,ELF1,0.498
same,binding signal,ELK4,0.442
same,binding signal,ETV4,0.459
same,binding signal,ETV1,0.486
same,binding signal,ERF,0.556
GAGGGG,binding signal,ERG,0.56
same,binding signal,ELF1,0.505
same,binding signal,ELK4,0.562
same,binding signal,ETV4,0.494
same,binding signal,ETV1,0.517
same,binding signal,ERF,0.598
CCGGGG,binding signal,ERG,0.769
same,binding signal,ELF1,0.808
same,binding signal,ELK4,0.722
same,binding signal,ETV4,0.762
same,binding signal,ETV1,0.842
same,binding signal,ERF,0.791
GTTGAG,binding signal,ERG,0.692
same,binding signal,ELF1,0.636
same,binding signal,ELK4,0.697
same,binding signal,ETV4,0.672
same,binding signal,ETV1,0.659
same,binding signal,ERF,0.66
GTGAAG,binding signal,ERG,0.537
same,binding signal,ELF1,0.549
same,binding signal,ELK4,0.526
same,binding signal,ETV4,0.556
same,binding signal,ETV1,0.597
same,binding signal,ERF,0.589
GCGTGG,binding signal,ERG,0.57
same,binding signal,ELF1,0.518
same,binding signal,ELK4,0.627
same,binding signal,ETV4,0.516
same,binding signal,ETV1,0.558
same,binding signal,ERF,0.548
GGCGGA,binding signal,ERG,0.433
same,binding signal,ELF1,0.35
same,binding signal,ELK4,0.343
same,binding signal,ETV4,0.39
same,binding signal,ETV1,0.395
same,binding signal,ERF,0.335
TGAGGA,binding signal,ERG,0.678
same,binding signal,ELF1,0.691
same,binding signal,ELK4,0.671
same,binding signal,ETV4,0.645
same,binding signal,ETV1,0.677
same,binding signal,ERF,0.623
GGTAGG,binding signal,ERG,0.642
same,binding signal,ELF1,0.613
same,binding signal,ELK4,0.667
same,binding signal,ETV4,0.621
same,binding signal,ETV1,0.647
same,binding signal,ERF,0.63
TCGGCA,binding signal,ERG,0.667
same,binding signal,ELF1,0.675
same,binding signal,ELK4,0.782
same,binding signal,ETV4,0.745
same,binding signal,ETV1,0.759
same,binding signal,ERF,0.729
GGAACC,binding signal,ERG,0.846
same,binding signal,ELF1,0.796
same,binding signal,ELK4,0.831
same,binding signal,ETV4,0.83
same,binding signal,ETV1,0.841
same,binding signal,ERF,0.772
CACCAG,binding signal,ERG,0.713
same,binding signal,ELF1,0.753
same,binding signal,ELK4,0.783
same,binding signal,ETV4,0.759
same,binding signal,ETV1,0.717
same,binding signal,ERF,0.712
GGCCGA,binding signal,ERG,0.679
same,binding signal,ELF1,0.734
same,binding signal,ELK4,0.721
same,binding signal,ETV4,0.756
same,binding signal,ETV1,0.648
same,binding signal,ERF,0.831
GCGGAG,binding signal,ERG,0.291
same,binding signal,ELF1,0.246
same,binding signal,ELK4,0.26
same,binding signal,ETV4,0.248
same,binding signal,ETV1,0.296
same,binding signal,ERF,0.262
GACGGC,binding signal,ERG,0.77
same,binding signal,ELF1,0.76
same,binding signal,ELK4,0.672
same,binding signal,ETV4,0.69
same,binding signal,ETV1,0.754
same,binding signal,ERF,0.728
AGCGTA,binding signal,ERG,0.95
same,binding signal,ELF1,0.918
same,binding signal,ELK4,0.889
same,binding signal,ETV4,0.823
same,binding signal,ETV1,0.918
same,binding signal,ERF,0.883
CGCAAG,binding signal,ERG,0.799
same,binding signal,ELF1,0.847
same,binding signal,ELK4,0.849
same,binding signal,ETV4,0.794
same,binding signal,ETV1,0.782
same,binding signal,ERF,0.803
AGCGTG,binding signal,ERG,0.391
same,binding signal,ELF1,0.361
same,binding signal,ELK4,0.456
same,binding signal,ETV4,0.381
same,binding signal,ETV1,0.4
same,binding signal,ERF,0.38

# Reprinted at random: seven entries already listed.
sequence,measurement,setting,value
GACGGC,binding signal,ETV4,0.69
GGCCGA,binding signal,ERG,0.679
GAGGGG,binding signal,ELF1,0.505
TGAGGA,binding signal,ELF1,0.691
same,binding signal,ETV1,0.677
AGTGTG,binding signal,ETV1,0.781
GACGGC,binding signal,ELF1,0.76

# Some of the entries above in another layout.
sequence	measurement	setting	value
CACCAG	binding signal	ERF	0.712
GGCCGA	binding signal	ERG	0.679
same	binding signal	ELF1	0.734
same	binding signal	ELK4	0.721

# — paper PMC7862700
